Measurements as given in PubChem BioAssay AID330 (DTP/NCI, 2004).
The list shows only some results of the screen, not a fair sample: it is rich in T/C values a quarter to a half above the control, in often repeated tests (any T/C) and in doses without a T/C. Further doses and runs are listed elsewhere. T/C is the treated group as % of the vehicle group. Some entries give survivors of the animals treated and no T/C: the source files T/C as zero there, which appears to mark a toxic dose or a test without result, not a measured value. Some survivor counts are full or nearly so, which does not show that the dose was tolerated: survival well below the control is almost never listed, so the zero probably covers shortened survival too. Survivors were counted at the toxicity check, usually on the fifth day, unless a day is given; later deaths do not show. Schedules are NCI's codes, taken here to give the interval after Q, in days (D) or hours (H), and the number of doses after X. Some entries hold several experiments; the results are listed from low to high. Some molecules as drawn cover several salts, stereoisomers or complexes of the source; a dose is that of the sample tested. For survival time, this PubChem deposit counts one and a half times the control or more as active, and values a quarter to a half above the control carry no call in these data; other NCI protocols may use other cut-offs. Some T/C values are followed by the survivors on the day toxicity was checked, most often the fifth; without a count, all were alive then.

Test system: P388 leukemia ip, CD2F1 mice, survival T/C
Assay: NCI In Vivo Anticancer Drug Screen. Data for tumor model P388 Leukemia (intraperitoneal) in CD2F1 (CDF1) mice
Settings: T/C endpoint: median survival time, higher T/C = longer survival
[1] = dose: 100.0 mg/kg/injection, schedule: Q04DX003 (ip), vehicle: saline
[2] = dose: 200.0 mg/kg/injection, schedule: Q01DX005 (ip), vehicle: Klucel (hydroxypropylcellulose) (HPC)
[3] = dose: 25.0 mg/kg/injection, schedule: Q01DX009 (ip), vehicle: distilled water + Tween-80
[4] = dose: 200.0 mg/kg/injection, schedule: Q01DX005 (ip), vehicle: saline with Tween-80
[5] = dose: 0.07 mg/kg/injection, schedule: Q01DX009 (ip), vehicle: saline
[6] = dose: 0.15 mg/kg/injection, schedule: Q01DX009 (ip), vehicle: saline
[7] = dose: 0.31 mg/kg/injection, schedule: Q01DX009 (ip), vehicle: saline
[8] = dose: 200.0 mg/kg/injection, schedule: Q01DX009 (ip), vehicle: saline with Tween-80

Nc1ccccc1N1CCNCC1
survivor count [1]: 0 of 6
survivor count (dose: 200.0 mg/kg/injection, schedule: Q04DX003 (ip), vehicle: saline): 0 of 6

C1CN(CC2CCC(CN3CCOCC3)O2)CCO1 (centres undefined)
T/C (dose: 12.5 mg/kg/injection, schedule: Q01DX005 (ip), vehicle: Klucel (hydroxypropylcellulose) (HPC)): 125 % of control
survivor count (dose: 25.0 mg/kg/injection, schedule: Q01DX005 (ip), vehicle: Klucel (hydroxypropylcellulose) (HPC)): 2 of 6
survivor count (dose: 50.0 mg/kg/injection, schedule: Q01DX005 (ip), vehicle: Klucel (hydroxypropylcellulose) (HPC)): 4 of 5
survivor count (dose: 100.0 mg/kg/injection, schedule: Q01DX005 (ip), vehicle: Klucel (hydroxypropylcellulose) (HPC)): 0 of 5
survivor count [2]: 0 of 5

CC(C)CC(NC(=O)C(N)Cc1c[nH]c2ccccc12)C(N)=O (centres undefined)
survivor count [1]: 6 of 6

CCCCNC(=O)OCC1=C(COC(=O)NCCCC)C2OC1C(C(=O)OC)=C2C(=O)OC
T/C (dose: 12.5 mg/kg/injection, schedule: Q01DX009 (ip), vehicle: distilled water + Tween-80): 86, 98, 105, 107 % of control
T/C [3]: 97, 99, 123 % of control
survivor count [3]: 6 of 6
survivor count (dose: 50.0 mg/kg/injection, schedule: Q01DX009 (ip), vehicle: distilled water + Tween-80): 6 of 6
survivor count (dose: 100.0 mg/kg/injection, schedule: Q01DX009 (ip), vehicle: distilled water + Tween-80): 6 of 6
survivor count (dose: 200.0 mg/kg/injection, schedule: Q01DX009 (ip), vehicle: distilled water + Tween-80): 2 of 6

COC1=CC(=O)C(C2OC(=O)C(Cl)=C2Cl)=CC1=O (centres undefined)
survivor count [4]: 2 of 6

COc1ccc2cc1Oc1ccc(cc1)CC1c3c(cc(OC)c(OC)c3Oc3cc4c(cc3OC)CCN(C)C4C2)CCN1C (centres undefined)
survivor count (dose: 400.0 mg/kg/injection, schedule: Q01DX001 (ip), vehicle: saline with Tween-80): 0 of 6

CCN1C[C@]2(COC)[C@H](O)C[C@H](OC)[C@]34C1[C@H]([C@H](OC)[C@H]23)[C@]1(OC(C)=O)[C@H]2[C@@H](OC(=O)c3ccccc3)[C@](O)(C[C@H]24)[C@@H](OC)[C@@H]1O
T/C (dose: 0.03 mg/kg/injection, schedule: Q01DX009 (ip), vehicle: saline): 92, 95, 105, 115, 116 % of control
T/C [5]: 91, 97, 105 % of control
survivor count [5]: 2 of 6 and 5 of 6
T/C [6]: 95 and 125 % of control
survivor count [6]: 1 of 6, 4 of 6, 6 of 6
T/C [7]: 103 % of control
survivor count [7]: 0 of 6 and 2 of 6
survivor count (dose: 0.62 mg/kg/injection, schedule: Q01DX009 (ip), vehicle: saline): 0 of 6
survivor count (dose: 1.25 mg/kg/injection, schedule: Q01DX009 (ip), vehicle: saline): 0 of 6
survivor count (dose: 2.5 mg/kg/injection, schedule: Q01DX009 (ip), vehicle: saline): 0 of 6
survivor count (dose: 5.0 mg/kg/injection, schedule: Q01DX009 (ip), vehicle: saline): 0 of 6

Nc1ncnc(Nc2ccc(S(N)(=O)=O)cc2)n1
survivor count (dose: 40.0 mg/kg/injection, schedule: Q01DX009 (ip), vehicle: Klucel (hydroxypropylcellulose) (HPC)): 1 of 5

CC(=O)C[n+]1ccccc1Sc1ccc(Cl)cc1
survivor count [4]: 0 of 5

O=c1[nH]cccc1O
T/C (dose: 100.0 mg/kg/injection, schedule: Q01DX009 (ip), vehicle: Klucel (hydroxypropylcellulose) (HPC)): 125 and 128 % of control
T/C (dose: 128.0 mg/kg/injection, schedule: Q01DX009 (ip), vehicle: saline with Tween-80): 125 % of control
T/C (dose: 200.0 mg/kg/injection, schedule: Q01DX009 (ip), vehicle: Klucel (hydroxypropylcellulose) (HPC)): 127 and 128 % of control
T/C (dose: 250.0 mg/kg/injection, schedule: Q01DX009 (ip), vehicle: saline with Tween-80): 132 % of control
T/C (dose: 300.0 mg/kg/injection, schedule: Q01DX009 (ip), vehicle: saline): 128 and 130 % of control
T/C (dose: 400.0 mg/kg/injection, schedule: Q01DX009 (ip), vehicle: Klucel (hydroxypropylcellulose) (HPC)): 133 % of control [5 of 6 alive]
T/C (dose: 400.0 mg/kg/injection, schedule: Q01DX009 (ip), vehicle: saline): 126 [5 of 6 alive] and 138 % of control [5 of 6 alive]
survivor count (dose: 600.0 mg/kg/injection, schedule: Q01DX009 (ip), vehicle: Klucel (hydroxypropylcellulose) (HPC)): 3 of 6 and 6 of 6

C/C=C1/CN2CCc3c([nH]c4ccccc34)C2CC1C(Cc1c[n+]2c(c3[nH]c4ccccc4c13)CC1C(C(=O)OC)=COC(C)C1C2)C(=O)OC (centres undefined)
survivor count [8]: 0 of 6

NC(=S)c1cccc(C=Nc2ccccc2)n1
survivor count (dose: 50.0 mg/kg/injection, schedule: Q04DX003 (ip), vehicle: Klucel (hydroxypropylcellulose) (HPC)): 6 of 6
survivor count (dose: 200.0 mg/kg/injection, schedule: Q04DX003 (ip), vehicle: Klucel (hydroxypropylcellulose) (HPC)): 6 of 6

CCCNc1nc(C)nc2[nH]cc(C)c12
survivor count [2]: 0 of 6

CN(C)N=Nc1cccc(Cl)c1
T/C (dose: 100.0 mg/kg/injection, schedule: Q01DX009 (ip), vehicle: saline + alcohol): 129 % of control
survivor count (dose: 200.0 mg/kg/injection, schedule: Q01DX009 (ip), vehicle: saline + alcohol): 0 of 6

COc1cc(C=Nc2cc(Cl)c(Cl)c(Cl)c2)ccc1N(CCCl)CCCl
T/C (dose: 1.1 mg/kg/injection, schedule: Q01DX009 (ip), vehicle: Klucel (hydroxypropylcellulose) (HPC)): 135 % of control

COc1cc(NCCCCCNC(C)C)c2ncc(C)c(C)c2c1
survivor count (dose: 100.0 mg/kg/injection, schedule: Q01DX005 (ip), vehicle: saline): 2 of 5
survivor count (dose: 200.0 mg/kg/injection, schedule: Q01DX005 (ip), vehicle: saline): 0 of 5

O=C1c2ccccc2C(=O)c2c(I)cccc21
survivor count [4]: 5 of 5

O=CNNC(=O)c1cnccn1
T/C (dose: 300.0 mg/kg/injection, schedule: Q01DX009 (ip), vehicle: water): 127 % of control

ClCC[N+]12CC[N+](CCCl)(CC1)C2 (tested in a mixture with another compound)
T/C (dose: 25.0 mg/kg/injection, schedule: Q01DX009 (ip), vehicle: water): 127 % of control
T/C (dose: 50.0 mg/kg/injection, schedule: Q01DX005 (ip), vehicle: saline): 129 and 132 % of control
T/C (dose: 50.0 mg/kg/injection, schedule: Q01DX009 (ip), vehicle: water): 132 % of control
survivor count (dose: 200.0 mg/kg/injection, schedule: Q01DX009 (ip), vehicle: water): 5 of 6
survivor count (dose: 400.0 mg/kg/injection, schedule: Q01DX005 (ip), vehicle: saline): 0 of 5

NNC(=O)c1ccccc1Cl
survivor count (dose: 25.0 mg/kg/injection, schedule: Q01DX009 (ip), vehicle: saline): 1 of 6
survivor count (dose: 50.0 mg/kg/injection, schedule: Q01DX009 (ip), vehicle: Klucel (hydroxypropylcellulose) (HPC)): 0 of 6
survivor count (dose: 50.0 mg/kg/injection, schedule: Q01DX009 (ip), vehicle: saline): 0 of 6

Cc1cc2c(c(C#N)c1C)NC=NC2C (centres undefined)
survivor count [8]: 1 of 6

CCCCOC(=O)NC(=O)c1cc2cc(Cl)ccc2oc1=O
survivor count [4]: 6 of 6

CCC[CH2][Sn]([CH2]CCC)[O][Sn]([Cl])([CH2]CCC)[CH2]CCC
T/C (dose: 6.25 mg/kg/injection, schedule: Q01DX009 (ip), vehicle: saline with Tween-80): 130 % of control
survivor count (dose: 12.5 mg/kg/injection, schedule: Q01DX009 (ip), vehicle: saline with Tween-80): 4 of 6 and 5 of 6
survivor count (dose: 50.0 mg/kg/injection, schedule: Q01DX009 (ip), vehicle: saline with Tween-80): 6 of 6
survivor count (dose: 100.0 mg/kg/injection, schedule: Q01DX009 (ip), vehicle: saline with Tween-80): 1 of 6
survivor count [8]: 0 of 6

Cc1oc2c(c(=O)c1C)C1CCC(C2)N1C (centres undefined)
survivor count [2]: 0 of 6
